Measured values published in patent US20240117038A1.
No constants are given. Whether binding was seen depends on the method and setting. Some binding calls cover weakened binding; strength is not graded here.

Amino acid sequences for entries named in this document (tags omitted). A change or cut given only in a name is not applied to a line headed by its entry.
UniProt P49238: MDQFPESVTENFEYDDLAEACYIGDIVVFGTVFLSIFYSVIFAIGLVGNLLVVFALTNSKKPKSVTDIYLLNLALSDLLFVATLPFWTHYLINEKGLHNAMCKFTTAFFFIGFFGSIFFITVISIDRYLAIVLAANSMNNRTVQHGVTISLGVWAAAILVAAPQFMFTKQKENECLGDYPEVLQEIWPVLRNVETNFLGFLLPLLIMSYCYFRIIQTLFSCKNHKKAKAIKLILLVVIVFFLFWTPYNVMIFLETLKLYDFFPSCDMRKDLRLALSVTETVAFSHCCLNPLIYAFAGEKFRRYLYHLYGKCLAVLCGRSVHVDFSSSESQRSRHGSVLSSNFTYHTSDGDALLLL

Key:
[1] = biological target: human CX3CR1 T280M (human) (UniProt P49238); experiment: flow cytometry on transiently transfected HEK293T cells
[2] = biological target: human CX3CR1 V249I/T280M (human) (UniProt P49238); experiment: as above
human CX3CR1 (human) [3] = biological target: human CX3CR1 (human) (UniProt P49238); experiment: as above
[4] = biological target: human CX3CR1 V249I (human) (UniProt P49238); experiment: as above
[5] = biological target: cynomolgus CX3CR1 (cynomolgus monkey (Macaca fascicularis)); experiment: flow cytometry on CHO K1 cyCX3CR1 cells, 30 uM HSA
human CX3CR1 (human) [6] = biological target: human CX3CR1 (human) (UniProt P49238); experiment: flow cytometry on CHO K1 huCX3CR1 cells, 30 uM HSA

| binding [1] | binding [2] | binding (human CX3CR1 (human) [3]) | binding [4] | binding [5] | binding (human CX3CR1 (human) [6]) | Binder |
| --- | --- | --- | --- | --- | --- | --- |
| binds | binds | binds | binds | binds | binds | A041600034 (VHH) DVQLVESGGGSVQPGGSLRLSCAASGSIFSSTAMAWYRQAPGKQRDLVAVISTVGITKYADSVKGRFTISRDNAKNTVYLQMNSLRPEDTALYYCTSDARRGWDTRYWGQGTLVTVSSGGGGSGGGSEVQLVESGGGVVQPGGSLRLSCAASGFTFRSFGMSWVRQAPGKGPEWVSSISGSGSDTLYADSVKGRFTISRDNSKNTLYLQMNSLRPEDTALYYCTIGGSLSRSSQGTLVTVSSGGGGSGGGSEVQLVESGGGSVQPGGSLRLSCAASGSIFSSTAMAWYRQAPGKRRDLVAAINTVGVTKYADSVKGRFTISRDNAKNTVYLQMNSLRPEDTALYYCTSDPRRGWDTRYWGQGTLVTVSSA |
|  |  |  |  | binds | binds | A041600010 (VHH) DVQLVESGGGSVQPGGSLRLSCAASGSIFSSTAMAWYRQAPGKRRDLVAAINTVGVTKYADSVKGRFTISRDNAKNTVYLQMNSLRPEDTALYYCTSDPRRGWDTRYWGQGTLVTVSSGGGGSGGGSEVQLVESGGGVVQPGGSLRLSCAASGFTFRSFGMSWVRQAPGKGPEWVSSISGSGSDTLYADSVKGRFTISRDNSKNTLYLQMNSLRPEDTALYYCTIGGSLSRSSQGTLVTVSSGGGGSGGGSEVQLVESGGGSVQPGGSLRLSCAASGSIFSSTAMAWYRQAPGKRRDLVAAINTVGVTKYADSVKGRFTISRDNAKNTVYLQMNSLRPEDTALYYCTSDPRRGWDTRYWGQGTLVTVSSA |
|  |  |  |  | binds | binds | A041600026 (VHH) DVQLVESGGGSVQPGGSLRLSCAASGSIFSSTAMAWYRQAPGKRRDLVAAINTVGVTKYADSVKGRFTISRDNAKNTVYLQMNSLRPEDTALYYCTSDPRRGWDTRYWGQGTLVTVSSGGGGSGGGGSGGGGSGGGGSEVQLVESGGGVVQPGGSLRLSCAASGFTFRSFGMSWVRQAPGKGPEWVSSISGSGSDTLYADSVKGRFTISRDNSKNTLYLQMNSLRPEDTALYYCTIGGSLSRSSQGTLVTVSSGGGGSGGGGSGGGGSGGGGSEVQLVESGGGSVQPGGSLRLSCAASGSIFSSTAMAWYRQAPGKRRDLVAAINTVGVTKYADSVKGRFTISRDNAKNTVYLQMNSLRPEDTALYYCTSDPRRGWDTRYWGQGTLVTVSSA |
